These results are taken from publication PMC2736567.

The chains behind the UniProt entries cited, without tags or fusion partners.
UniProt Q997F1: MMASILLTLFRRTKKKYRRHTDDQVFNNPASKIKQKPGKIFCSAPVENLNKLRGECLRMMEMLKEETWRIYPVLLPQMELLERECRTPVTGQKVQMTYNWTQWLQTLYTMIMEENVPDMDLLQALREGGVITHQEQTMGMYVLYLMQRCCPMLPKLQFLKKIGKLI
UniProt P62993: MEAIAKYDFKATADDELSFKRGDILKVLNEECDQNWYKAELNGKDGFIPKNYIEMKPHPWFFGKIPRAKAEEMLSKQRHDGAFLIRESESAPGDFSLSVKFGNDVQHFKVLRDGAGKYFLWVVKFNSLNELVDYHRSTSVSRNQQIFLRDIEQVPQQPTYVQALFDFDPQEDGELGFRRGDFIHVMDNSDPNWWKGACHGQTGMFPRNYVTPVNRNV
UniProt P42224: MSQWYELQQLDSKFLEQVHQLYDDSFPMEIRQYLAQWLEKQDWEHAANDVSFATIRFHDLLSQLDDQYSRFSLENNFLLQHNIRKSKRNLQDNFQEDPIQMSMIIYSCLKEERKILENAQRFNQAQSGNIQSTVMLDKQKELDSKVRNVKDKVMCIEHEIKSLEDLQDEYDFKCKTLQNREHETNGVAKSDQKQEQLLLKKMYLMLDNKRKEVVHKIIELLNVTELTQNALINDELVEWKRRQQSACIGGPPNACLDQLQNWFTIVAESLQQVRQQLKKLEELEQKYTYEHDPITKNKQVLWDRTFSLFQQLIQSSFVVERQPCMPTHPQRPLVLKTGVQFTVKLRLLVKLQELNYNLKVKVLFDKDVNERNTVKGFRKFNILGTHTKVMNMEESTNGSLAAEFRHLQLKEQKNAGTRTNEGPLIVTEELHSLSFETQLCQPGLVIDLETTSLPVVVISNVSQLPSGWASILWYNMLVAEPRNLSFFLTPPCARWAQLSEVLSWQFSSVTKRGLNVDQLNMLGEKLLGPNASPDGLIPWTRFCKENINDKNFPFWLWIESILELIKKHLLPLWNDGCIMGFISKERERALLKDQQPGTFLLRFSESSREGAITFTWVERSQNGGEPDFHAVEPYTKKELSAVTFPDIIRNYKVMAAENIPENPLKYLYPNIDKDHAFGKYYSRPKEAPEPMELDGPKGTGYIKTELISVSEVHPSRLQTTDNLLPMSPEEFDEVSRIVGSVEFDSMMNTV

This assay deals with GST-tagged C protein of Nipah virus (Nipah-C) (Nipah virus) (UniProt Q997F1). Nature of the assay: pull-down.

No constants are given. Whether binding was seen depends on the method and setting. In cells and extracts the contact can be indirect.

Take “endogenous GRB2 (from UniProt P62993 1-217)”: the binding result was “no binding”.

As for “endogenous STAT1 (from UniProt P42224 1-750)”, the binding entry is given as “no binding”.
